Values from PubChem BioAssay AID1053208 (Peter MacCallum Cancer Centre, 2014)
The whole screen tested about 17,000 reagents; shown is an unselected part. Of all reagents, 788 (4.7%) are marked active. 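Calls rest on z-score classes alone; an extra cut-off of viability at most 70% of control was not applied to them.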 Unmarked entries are inactive. Not all columns of the deposit are shown.

- Test: 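Find knock-downs that sensitise mouse osteosarcoma cells to doxorubicin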 (primary screen)
- Cells: mouse osteosarcoma cells, early-passage culture from an engineered mouse model of fibroblastic bone tumour
- Reagent: siRNA pool against mouse genes, 40 nM
- Time to read-out: about 120 h (48 h before drug, then 72 h with drug)
- Challenge: doxorubicin 100 nM for 72 h, roughly 30-40% inhibitory dose
- Measured: 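Luminescent ATP signal taken as viability with or without 100 nM doxorubicin for 72 h; mean of two wells set against non-targeting siRNA and turned into robust z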
- Reading the numbers: viability z-score with doxorubicin: higher = more viable cells under doxorubicin; viability z-score without drug: higher = more viable cells with knock-down alone
- Hit rule: 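a pool counts as active when its viability z-score with doxorubicin is -2 or below and its z-score without drug lies between -2 and 2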

| target | PubChem SID | combined z-score class | viability z-score with doxorubicin | viability z-score without drug |
| --- | --- | --- | --- | --- |
| Klra23 (killer cell lectin-like receptor subfamily A, member 23) | SID152340890 | no change with or without drug | 0 | -0.51 |
| Cfap52 (cilia and flagella associated protein 52) | SID152310038 | no change with or without drug | 0.34 | 1.35 |
| Osgin1 (oxidative stress induced growth inhibitor 1) | SID152301625 | low cell count with doxorubicin only (active) | -2.36 | -1.85 |
| Sytl4 (synaptotagmin-like 4) | SID152266433 | low cell count with doxorubicin only (active) | -2.02 | -0.17 |
| Icam4 (intercellular adhesion molecule 4) | SID152260288 | no change with or without drug | -1.91 | -1.69 |
| Fhit (fragile histidine triad gene) | SID152287125 | no change with or without drug | 0.34 | 1.01 |
| Trpm6 | SID152295365 | no change with or without drug | -1.12 | -1.52 |
| Mapkapk3 (mitogen-activated protein kinase-activated protein kinase 3) | SID152267869 | no change with or without drug | -0.67 | 0.67 |
| Zmynd19 (zinc finger, MYND domain containing 19) | SID152323154 | no change with or without drug | -0.22 | 0.84 |
| Ankk1 (ankyrin repeat and kinase domain containing 1) | SID152340538 | no change with or without drug | 0.56 | 0.34 |
| Gpr149 (G protein-coupled receptor 149) | SID152322776 | no change with or without drug | 0.34 | 0.51 |
| Or6n2 (olfactory receptor family 6 subfamily N member 2) | SID152263659 | no change with or without drug | 0.56 | -0.17 |
| Ddx39b (DEAD box helicase 39b) | SID152272790 | no change with or without drug | 0.45 | 0.17 |
| Sit1 (suppression inducing transmembrane adaptor 1) | SID152286317 | no change with or without drug | 0 | 0.17 |
| Map2 (microtubule-associated protein 2) | SID152323384 | no change with or without drug | 0.45 | -0.17 |
| Exoc3 (exocyst complex component 3) | SID152270620 | no change with or without drug | -0.79 | -1.85 |
| Pik3ap1 (phosphoinositide-3-kinase adaptor protein 1) | SID152325661 | no change with or without drug | -0.22 | 0.34 |
| Vmn2r57 (vomeronasal 2, receptor 57) | SID152328246 | no change with or without drug | 0.11 | 0.34 |
| Casp12 (caspase 12) | SID152265635 | low cell count with doxorubicin only (active) | -2.14 | -0.17 |
| Or7d9 (olfactory receptor family 7 subfamily D member 9) | SID152265400 | no change with or without drug | -1.57 | -1.35 |
| Nupr2 (nuclear protein transcriptional regulator 2) | SID152297505 | no change with or without drug | 0 | 0.51 |
| Crnkl1 (crooked neck pre-mRNA splicing factor 1) | SID152316445 | low cell count with and without drug | -4.27 | -3.88 |
| Art4 (ADP-ribosyltransferase 4) | SID152278616 | high cell count with doxorubicin only | 2.36 | 1.52 |
| Chrm5 (cholinergic receptor, muscarinic 5) | SID152276352 | no change with or without drug | -1.46 | -0.51 |
| Neu4 (sialidase 4) | SID152305274 | no change with or without drug | -0.45 | 0.17 |
| Pax1 (paired box 1) | SID152291424 | no change with or without drug | 1.12 | 0.51 |
| Lrrc8c (leucine rich repeat containing 8 family, member C) | SID152283149 | high cell count without drug only | -0.22 | 2.02 |
| Or10ag52 (olfactory receptor family 10 subfamily AG member 52) | SID152341377 | no change with or without drug | 1.46 | 0.84 |
| Ptov1 (prostate tumor over expressed gene 1) | SID152313339 | no change with or without drug | 0 | 0.17 |
| Or10p1 (olfactory receptor family 10 subfamily P member 1) | SID152333458 | no change with or without drug | 0.9 | 0.17 |
| Mogat1 (monoacylglycerol O-acyltransferase 1) | SID152294076 | no change with or without drug | 1.35 | -0.17 |
| Plcd4 (phospholipase C, delta 4) | SID152339781 | no change with or without drug | 1.35 | 1.18 |
| Vcpip1 | SID152283202 | no change with or without drug | 0.34 | 0.51 |
| Or5ac21 (olfactory receptor family 5 subfamily AC member 21) | SID152281575 | no change with or without drug | 0.34 | 0.51 |

7 consecutive entries from above, quoted:
| target | PubChem SID | combined z-score class | viability z-score with doxorubicin | viability z-score without drug |
| --- | --- | --- | --- | --- |
| Gpr149 (G protein-coupled receptor 149) | SID152322776 | no change with or without drug | 0.34 | 0.51 |
| Or6n2 (olfactory receptor family 6 subfamily N member 2) | SID152263659 | no change with or without drug | 0.56 | -0.17 |
| Ddx39b (DEAD box helicase 39b) | SID152272790 | no change with or without drug | 0.45 | 0.17 |
| Sit1 (suppression inducing transmembrane adaptor 1) | SID152286317 | no change with or without drug | 0 | 0.17 |
| Map2 (microtubule-associated protein 2) | SID152323384 | no change with or without drug | 0.45 | -0.17 |
| Exoc3 (exocyst complex component 3) | SID152270620 | no change with or without drug | -0.79 | -1.85 |
| Pik3ap1 (phosphoinositide-3-kinase adaptor protein 1) | SID152325661 | no change with or without drug | -0.22 | 0.34 |

More records follow.
| target | PubChem SID | combined z-score class | viability z-score with doxorubicin | viability z-score without drug |
| --- | --- | --- | --- | --- |
| Gsdma (gasdermin A) | SID152287609 | no change with or without drug | -0.79 | -0.17 |
| Dck (deoxycytidine kinase) | SID152275054 | no change with or without drug | -0.22 | -0.51 |
| Ctsg (cathepsin G) | SID152299074 | no change with or without drug | 0.67 | -0.67 |
| Prorsd1 (prolyl-tRNA synthetase domain containing 1) | SID152285937 | low cell count with doxorubicin only (active) | -2.7 | 0.17 |
| Slc25a16 | SID152315743 | no change with or without drug | 0.34 | 0.17 |
| Crisp2 (cysteine-rich secretory protein 2) | SID152265692 | no change with or without drug | 0.45 | 1.85 |
| Epha2 (Eph receptor A2) | SID152291057 | no change with or without drug | 0.34 | -0.17 |
| Ccdc158 (coiled-coil domain containing 158) | SID152261506 | no change with or without drug | 0 | 0.51 |
| Swap70 (SWA-70 protein) | SID152324156 | no change with or without drug | -1.8 | -1.35 |
| Pon1 (paraoxonase 1) | SID152291518 | no change with or without drug | 1.01 | 1.18 |
| Polr2d (polymerase (RNA) II (DNA directed) polypeptide D) | SID152310831 | low cell count with and without drug | -4.72 | -6.58 |
| Prkdc (protein kinase, DNA activated, catalytic polypeptide) | SID152275622 | low cell count without drug only | 0.9 | -2.19 |
| Or5d37 (olfactory receptor family 5 subfamily D member 37) | SID152330616 | low cell count without drug only | -1.12 | -2.19 |
| Agbl2 (ATP/GTP binding protein-like 2) | SID152298075 | no change with or without drug | 0.34 | -0.51 |
| Cpeb1 (cytoplasmic polyadenylation element binding protein 1) | SID152269163 | no change with or without drug | 1.8 | 0.84 |
| Zfp654 (zinc finger protein 654) | SID152322896 | high cell count with doxorubicin only | 2.47 | 0.51 |
| Ear4 (eosinophil-associated, ribonuclease A family, member 4) | SID152300846 | high cell count without drug only | 1.46 | 4.38 |
| Ctsd (cathepsin D) | SID152268369 | no change with or without drug | 0.56 | -0.51 |
| N4bp1 (NEDD4 binding protein 1) | SID152313926 | no change with or without drug | 0.11 | 0.17 |
| Zfp998 (zinc finger protein 998) | SID152259904 | high cell count with doxorubicin only | 2.02 | 1.35 |
| Zswim1 (zinc finger SWIM-type containing 1) | SID152303279 | no change with or without drug | 0.45 | -1.52 |
| B230206H07Rik (RIKEN cDNA B230206H07 gene) | SID152336811 | no change with or without drug | -1.35 | 0.51 |
| Cntnap4 (contactin associated protein-like 4) | SID152315665 | high cell count without drug only | 0.11 | 2.53 |
| Rxylt1 (ribitol xylosyltransferase 1) | SID152331571 | low cell count with doxorubicin only (active) | -2.7 | 0 |
| Ctps2 (cytidine 5'-triphosphate synthase 2) | SID152273564 | no change with or without drug | 1.01 | 0.67 |
| Med28 (mediator complex subunit 28) | SID152300154 | no change with or without drug | 0.22 | -1.69 |
| Zyx (zyxin) | SID152279230 | no change with or without drug | 1.01 | -0.67 |
| Plekhf1 (pleckstrin homology and FYVE domain containing 1) | SID152301436 | no change with or without drug | -0.22 | -0.34 |
| Adam28 (a disintegrin and metallopeptidase domain 28) | SID152282784 | no change with or without drug | -0.22 | -0.51 |
